# Test results taken from the supplement of paper PMC10032668.
# Amino acid sequences for entries named in this document (tags omitted).
# AIFM1, O95831, UniProt O95831, whole entry: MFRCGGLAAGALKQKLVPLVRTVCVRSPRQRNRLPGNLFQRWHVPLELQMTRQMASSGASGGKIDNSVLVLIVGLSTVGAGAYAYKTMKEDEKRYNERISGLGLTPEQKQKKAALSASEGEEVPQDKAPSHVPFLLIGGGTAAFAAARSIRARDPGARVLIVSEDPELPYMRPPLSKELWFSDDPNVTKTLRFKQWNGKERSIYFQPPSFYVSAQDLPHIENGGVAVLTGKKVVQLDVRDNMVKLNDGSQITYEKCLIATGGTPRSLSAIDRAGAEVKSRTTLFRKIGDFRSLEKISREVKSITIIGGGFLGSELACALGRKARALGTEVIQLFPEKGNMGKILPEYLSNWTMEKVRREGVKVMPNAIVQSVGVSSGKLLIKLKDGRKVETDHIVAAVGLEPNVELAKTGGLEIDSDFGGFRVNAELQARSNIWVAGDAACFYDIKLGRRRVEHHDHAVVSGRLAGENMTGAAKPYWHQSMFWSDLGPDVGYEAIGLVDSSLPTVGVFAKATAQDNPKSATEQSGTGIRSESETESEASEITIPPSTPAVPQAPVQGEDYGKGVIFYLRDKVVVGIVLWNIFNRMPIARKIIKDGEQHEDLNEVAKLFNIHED
# CUL4A, Q13619, UniProt Q13619, whole entry: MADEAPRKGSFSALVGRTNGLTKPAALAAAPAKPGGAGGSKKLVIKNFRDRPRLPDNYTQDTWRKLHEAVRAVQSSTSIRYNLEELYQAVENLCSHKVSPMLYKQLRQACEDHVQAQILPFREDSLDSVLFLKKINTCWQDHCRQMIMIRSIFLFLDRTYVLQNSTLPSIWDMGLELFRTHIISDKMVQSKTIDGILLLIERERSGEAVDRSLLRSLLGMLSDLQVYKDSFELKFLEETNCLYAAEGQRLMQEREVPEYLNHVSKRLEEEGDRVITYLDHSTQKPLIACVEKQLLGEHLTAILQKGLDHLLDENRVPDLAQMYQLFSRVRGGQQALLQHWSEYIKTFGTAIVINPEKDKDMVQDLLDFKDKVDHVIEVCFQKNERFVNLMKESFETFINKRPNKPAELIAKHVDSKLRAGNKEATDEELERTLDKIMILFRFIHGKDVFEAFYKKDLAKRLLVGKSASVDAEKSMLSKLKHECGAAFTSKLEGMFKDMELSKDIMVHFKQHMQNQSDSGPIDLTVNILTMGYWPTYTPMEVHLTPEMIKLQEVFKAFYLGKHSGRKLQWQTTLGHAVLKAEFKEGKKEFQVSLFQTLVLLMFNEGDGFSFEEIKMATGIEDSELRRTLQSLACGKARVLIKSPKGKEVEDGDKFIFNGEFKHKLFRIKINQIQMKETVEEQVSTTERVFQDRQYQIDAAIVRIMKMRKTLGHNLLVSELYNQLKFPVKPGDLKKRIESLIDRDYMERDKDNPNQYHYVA
# CD2AP, Q9Y5K6, UniProt Q9Y5K6, whole entry: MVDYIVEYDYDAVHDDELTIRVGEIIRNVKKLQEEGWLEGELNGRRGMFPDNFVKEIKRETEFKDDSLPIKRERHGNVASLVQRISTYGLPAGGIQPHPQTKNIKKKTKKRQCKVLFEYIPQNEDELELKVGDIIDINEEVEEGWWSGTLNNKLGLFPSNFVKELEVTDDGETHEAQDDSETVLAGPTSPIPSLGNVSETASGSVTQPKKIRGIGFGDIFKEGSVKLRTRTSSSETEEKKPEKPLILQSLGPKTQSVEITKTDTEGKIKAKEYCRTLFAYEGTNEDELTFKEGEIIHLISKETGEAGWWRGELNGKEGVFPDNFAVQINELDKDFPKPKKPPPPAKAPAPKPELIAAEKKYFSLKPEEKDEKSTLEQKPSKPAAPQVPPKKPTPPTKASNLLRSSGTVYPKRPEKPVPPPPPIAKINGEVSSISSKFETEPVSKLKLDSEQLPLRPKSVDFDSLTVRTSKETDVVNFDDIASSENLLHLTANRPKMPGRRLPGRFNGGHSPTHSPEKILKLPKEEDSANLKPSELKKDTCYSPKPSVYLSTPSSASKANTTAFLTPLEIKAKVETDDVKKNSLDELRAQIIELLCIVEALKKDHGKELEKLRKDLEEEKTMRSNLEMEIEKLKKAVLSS
# DNAJC13, O75165, UniProt O75165, whole entry: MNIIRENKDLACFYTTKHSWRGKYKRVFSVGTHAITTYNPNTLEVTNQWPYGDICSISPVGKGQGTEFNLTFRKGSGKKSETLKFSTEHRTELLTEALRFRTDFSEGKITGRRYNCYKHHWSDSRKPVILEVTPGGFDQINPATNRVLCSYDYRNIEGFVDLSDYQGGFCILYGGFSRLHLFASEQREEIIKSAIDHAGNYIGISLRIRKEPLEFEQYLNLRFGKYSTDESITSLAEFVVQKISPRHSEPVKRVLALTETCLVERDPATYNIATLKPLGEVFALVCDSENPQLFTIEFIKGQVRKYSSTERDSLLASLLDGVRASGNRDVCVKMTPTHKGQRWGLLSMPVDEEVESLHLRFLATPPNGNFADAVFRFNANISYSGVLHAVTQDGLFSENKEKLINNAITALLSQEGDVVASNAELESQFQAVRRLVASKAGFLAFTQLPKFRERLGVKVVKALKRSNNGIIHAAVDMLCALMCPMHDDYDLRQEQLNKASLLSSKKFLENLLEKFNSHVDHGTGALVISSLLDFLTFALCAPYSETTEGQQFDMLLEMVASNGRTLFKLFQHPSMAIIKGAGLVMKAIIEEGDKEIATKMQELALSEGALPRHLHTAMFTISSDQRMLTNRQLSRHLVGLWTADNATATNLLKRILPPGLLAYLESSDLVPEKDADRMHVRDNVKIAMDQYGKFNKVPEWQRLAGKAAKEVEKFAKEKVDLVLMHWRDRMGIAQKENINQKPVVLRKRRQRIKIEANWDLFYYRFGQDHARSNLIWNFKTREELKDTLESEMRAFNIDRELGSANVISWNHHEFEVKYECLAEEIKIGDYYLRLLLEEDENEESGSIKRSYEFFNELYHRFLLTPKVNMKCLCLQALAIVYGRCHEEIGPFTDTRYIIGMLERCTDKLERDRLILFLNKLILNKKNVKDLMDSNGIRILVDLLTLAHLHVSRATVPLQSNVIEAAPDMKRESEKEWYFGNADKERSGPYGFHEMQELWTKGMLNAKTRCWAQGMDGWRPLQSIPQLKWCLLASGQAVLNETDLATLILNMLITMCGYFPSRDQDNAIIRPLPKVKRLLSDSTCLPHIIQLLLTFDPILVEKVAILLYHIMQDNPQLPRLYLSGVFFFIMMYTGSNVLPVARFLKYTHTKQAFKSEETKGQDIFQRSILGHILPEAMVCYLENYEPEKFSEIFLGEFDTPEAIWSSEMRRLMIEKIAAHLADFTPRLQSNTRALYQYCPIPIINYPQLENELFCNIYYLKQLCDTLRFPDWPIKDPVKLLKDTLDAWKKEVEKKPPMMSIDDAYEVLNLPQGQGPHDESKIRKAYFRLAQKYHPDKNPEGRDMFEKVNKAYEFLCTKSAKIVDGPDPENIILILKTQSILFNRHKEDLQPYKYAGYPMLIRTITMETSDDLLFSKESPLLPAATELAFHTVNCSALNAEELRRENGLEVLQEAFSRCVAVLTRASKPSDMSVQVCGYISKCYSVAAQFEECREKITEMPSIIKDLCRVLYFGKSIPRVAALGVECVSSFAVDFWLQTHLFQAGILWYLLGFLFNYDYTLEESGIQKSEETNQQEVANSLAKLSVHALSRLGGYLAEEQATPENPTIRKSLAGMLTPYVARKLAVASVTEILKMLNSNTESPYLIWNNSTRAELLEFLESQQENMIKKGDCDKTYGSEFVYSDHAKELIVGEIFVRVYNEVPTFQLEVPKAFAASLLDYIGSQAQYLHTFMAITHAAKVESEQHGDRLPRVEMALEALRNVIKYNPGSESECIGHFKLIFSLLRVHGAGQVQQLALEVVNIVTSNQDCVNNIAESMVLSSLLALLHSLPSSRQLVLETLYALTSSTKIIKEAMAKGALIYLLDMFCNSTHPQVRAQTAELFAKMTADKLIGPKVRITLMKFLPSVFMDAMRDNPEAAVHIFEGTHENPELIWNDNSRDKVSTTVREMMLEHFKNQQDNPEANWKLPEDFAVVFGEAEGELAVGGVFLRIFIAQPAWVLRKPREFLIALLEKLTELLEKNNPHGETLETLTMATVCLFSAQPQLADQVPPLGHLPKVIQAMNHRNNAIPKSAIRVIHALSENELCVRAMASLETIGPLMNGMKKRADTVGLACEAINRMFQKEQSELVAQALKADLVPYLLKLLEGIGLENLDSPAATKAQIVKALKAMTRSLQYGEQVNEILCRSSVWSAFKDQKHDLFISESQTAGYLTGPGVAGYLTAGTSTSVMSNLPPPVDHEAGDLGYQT
# PFN1, P07737, UniProt P07737, whole entry: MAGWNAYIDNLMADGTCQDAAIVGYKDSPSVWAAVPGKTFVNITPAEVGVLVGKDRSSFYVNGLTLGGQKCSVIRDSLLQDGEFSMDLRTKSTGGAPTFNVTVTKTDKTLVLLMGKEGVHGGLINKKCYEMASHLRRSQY
# TARDBP, Q13148, UniProt Q13148, whole entry: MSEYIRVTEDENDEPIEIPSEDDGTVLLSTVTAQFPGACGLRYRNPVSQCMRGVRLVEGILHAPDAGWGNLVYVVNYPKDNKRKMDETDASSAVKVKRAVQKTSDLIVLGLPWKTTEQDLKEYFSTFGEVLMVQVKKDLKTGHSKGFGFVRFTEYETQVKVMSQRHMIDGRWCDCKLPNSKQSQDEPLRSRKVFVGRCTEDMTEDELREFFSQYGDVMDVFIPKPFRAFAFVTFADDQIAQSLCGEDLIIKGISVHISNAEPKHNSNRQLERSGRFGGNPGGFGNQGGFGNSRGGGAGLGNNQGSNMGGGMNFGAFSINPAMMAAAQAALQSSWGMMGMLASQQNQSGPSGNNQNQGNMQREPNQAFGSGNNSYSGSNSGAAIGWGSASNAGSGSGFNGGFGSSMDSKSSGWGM
# TRAPPC5, Q8IUR0, UniProt Q8IUR0, whole entry: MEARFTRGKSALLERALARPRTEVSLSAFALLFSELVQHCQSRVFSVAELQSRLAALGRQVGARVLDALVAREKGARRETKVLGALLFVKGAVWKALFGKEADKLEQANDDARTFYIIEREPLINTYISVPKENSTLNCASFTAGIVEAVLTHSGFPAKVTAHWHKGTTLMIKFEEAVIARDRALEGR
# The list shows a part of the results. The list holds hits alone, and they repeat only in part.
# Tests used:
# Test in all cases: PRISMA enrichment of interactor (LFQ) in peptide spot vs all other peptide spots (log2 fold change); higher = stronger / more specific binding of the interactor to the peptide
# AIFM1, O95831 = biological target: AIFM1, O95831
# Protocol: (§1)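 PRISMA: 15-aa overlapping tiles (offset 8 aa) of 60 microproteins, plus SOS1/GLUT1 control peptides, were spot-synthesized on cellulose membranes in triplicate. Membranes were incubated with benzonase-treated HEK293T lysate, and bound proteins were identified by LC-MS/MS with LFQ. Enrichment is the log2 fold change of each protein in one spot versus all other spots. Only interactors passing the significance cutoff are listed.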
# ANP32B, Q92688 = biological target: ANP32B, Q92688
# Protocol: as §1
# AP2M1, Q96CW1 = biological target: AP2M1, Q96CW1
# Protocol: as §1
# ATP2B3, Q16720 = biological target: ATP2B3, Q16720
# Protocol: as §1
# COPS5, Q92905 = biological target: COPS5, Q92905
# Protocol: as §1
# CUL4A, Q13619 = biological target: CUL4A, Q13619
# Protocol: as §1
# CWC22, Q9HCG8 = biological target: CWC22, Q9HCG8
# Protocol: as §1
# CWC25, Q9NXE8 = biological target: CWC25, Q9NXE8
# Protocol: as §1
# DCTPP1, Q9H773 = biological target: DCTPP1, Q9H773
# Protocol: as §1
# EIF1AD, Q8N9N8 = biological target: EIF1AD, Q8N9N8
# Protocol: as §1
# LONP1, P36776 = biological target: LONP1, P36776
# Protocol: as §1
# MRPL49, Q13405 = biological target: MRPL49, Q13405
# Protocol: as §1
# MRPL50, Q8N5N7 = biological target: MRPL50, Q8N5N7
# Protocol: as §1
# POLR2E, P19388 = biological target: POLR2E, P19388
# Protocol: as §1
# ZBTB11, O95625 = biological target: ZBTB11, O95625
# Protocol: as §1
# AIMP2, Q13155 = biological target: AIMP2, Q13155
# Protocol: as §1
# C19orf53, Q9UNZ5 = biological target: C19orf53, Q9UNZ5
# Protocol: as §1
# CD2AP, Q9Y5K6 = biological target: CD2AP, Q9Y5K6
# Protocol: as §1
# [1] = substrate: CNBP, P62633
# Protocol: as §1
# COPS2, P61201 = biological target: COPS2, P61201
# Protocol: as §1
# DARS2, Q6PI48 = biological target: DARS2, Q6PI48
# Protocol: as §1
# DCUN1D5, Q9BTE7 = biological target: DCUN1D5, Q9BTE7
# Protocol: as §1
# DDX28, Q9NUL7 = biological target: DDX28, Q9NUL7
# Protocol: as §1
# DNAJA2, O60884 = biological target: DNAJA2, O60884
# Protocol: as §1
# DNAJC13, O75165 = biological target: DNAJC13, O75165
# Protocol: as §1
# FLYWCH2, Q96CP2 = biological target: FLYWCH2, Q96CP2
# Protocol: as §1
# GPAT4, Q86UL3 = biological target: GPAT4, Q86UL3
# Protocol: as §1
# HTATSF1, O43719 = biological target: HTATSF1, O43719
# Protocol: as §1
# IVD, P26440 = biological target: IVD, P26440
# Protocol: as §1
# IWS1, Q96ST2 = biological target: IWS1, Q96ST2
# Protocol: as §1
# MARK2, Q7KZI7 = biological target: MARK2, Q7KZI7
# Protocol: as §1
# MRPL24, Q96A35 = biological target: MRPL24, Q96A35
# Protocol: as §1
# MRPS15, P82914 = biological target: MRPS15, P82914
# Protocol: as §1
# MRPS23, Q9Y3D9 = biological target: MRPS23, Q9Y3D9
# Protocol: as §1
# NAT10, Q9H0A0 = biological target: NAT10, Q9H0A0
# Protocol: as §1
# NOC4L, Q9BVI4 = biological target: NOC4L, Q9BVI4
# Protocol: as §1
# NUP37, Q8NFH4 = biological target: NUP37, Q8NFH4
# Protocol: as §1
# NUP85, Q9BW27 = biological target: NUP85, Q9BW27
# Protocol: as §1
# PFN1, P07737 = biological target: PFN1, P07737
# Protocol: as §1
# PJA2, O43164 = biological target: PJA2, O43164
# Protocol: as §1
# POLD2, P49005 = biological target: POLD2, P49005
# Protocol: as §1
# [2] = substrate: PPIF, P30405
# Protocol: as §1
# PRRC2B, Q5JSZ5 = biological target: PRRC2B, Q5JSZ5
# Protocol: as §1
# RBM12B, Q8IXT5 = biological target: RBM12B, Q8IXT5
# Protocol: as §1
# RNF5, Q99942 = biological target: RNF5, Q99942
# Protocol: as §1
# SF3B4, Q15427 = biological target: SF3B4, Q15427
# Protocol: as §1
# SPTLC1, O15269 = biological target: SPTLC1, O15269
# Protocol: as §1
# TARDBP, Q13148 = biological target: TARDBP, Q13148
# Protocol: as §1
# TRAPPC5, Q8IUR0 = biological target: TRAPPC5, Q8IUR0
# Protocol: as §1
# VRK1, Q99986 = biological target: VRK1, Q99986
# Protocol: as §1
# ZC3H14, Q6PJT7 = biological target: ZC3H14, Q6PJT7
# Protocol: as §1
# ZNF281, Q9Y2X9 = biological target: ZNF281, Q9Y2X9
# Protocol: as §1
binder,measurement,setting,value
STCSLKIPSARHFSW [PRR34-AS1],PRISMA enrichment of interactor (log2),"AIFM1, O95831",4.91
same,PRISMA enrichment of interactor (log2),"ANP32B, Q92688",7.16
same,PRISMA enrichment of interactor (log2),"AP2M1, Q96CW1",4.91
same,PRISMA enrichment of interactor (log2),"ATP2B3, Q16720",6.59
same,PRISMA enrichment of interactor (log2),"COPS5, Q92905",4.88
same,PRISMA enrichment of interactor (log2),"CUL4A, Q13619",4.1
same,PRISMA enrichment of interactor (log2),"CWC22, Q9HCG8",4.76
same,PRISMA enrichment of interactor (log2),"CWC25, Q9NXE8",3.96
same,PRISMA enrichment of interactor (log2),"DCTPP1, Q9H773",3.59
same,PRISMA enrichment of interactor (log2),"EIF1AD, Q8N9N8",4.95
same,PRISMA enrichment of interactor (log2),"LONP1, P36776",8.37
same,PRISMA enrichment of interactor (log2),"MRPL49, Q13405",4.15
same,PRISMA enrichment of interactor (log2),"MRPL50, Q8N5N7",3.88
same,PRISMA enrichment of interactor (log2),"POLR2E, P19388",5.05
same,PRISMA enrichment of interactor (log2),"ZBTB11, O95625",8.85
IHSGGDLTCHCEQLL [LINC01128],PRISMA enrichment of interactor (log2),"AIMP2, Q13155",5.23
same,PRISMA enrichment of interactor (log2),"C19orf53, Q9UNZ5",5.89
same,PRISMA enrichment of interactor (log2),"CD2AP, Q9Y5K6",4.79
same,PRISMA enrichment of interactor (log2),[1],5.76
same,PRISMA enrichment of interactor (log2),"COPS2, P61201",5.05
same,PRISMA enrichment of interactor (log2),"DARS2, Q6PI48",4.69
same,PRISMA enrichment of interactor (log2),"DCUN1D5, Q9BTE7",5.78
same,PRISMA enrichment of interactor (log2),"DDX28, Q9NUL7",5.63
same,PRISMA enrichment of interactor (log2),"DNAJA2, O60884",6.78
same,PRISMA enrichment of interactor (log2),"DNAJC13, O75165",4.19
same,PRISMA enrichment of interactor (log2),"FLYWCH2, Q96CP2",4.13
same,PRISMA enrichment of interactor (log2),"GPAT4, Q86UL3",4.05
same,PRISMA enrichment of interactor (log2),"HTATSF1, O43719",6.24
same,PRISMA enrichment of interactor (log2),"IVD, P26440",5.33
same,PRISMA enrichment of interactor (log2),"IWS1, Q96ST2",6.82
same,PRISMA enrichment of interactor (log2),"MARK2, Q7KZI7",4.24
same,PRISMA enrichment of interactor (log2),"MRPL24, Q96A35",5.17
same,PRISMA enrichment of interactor (log2),"MRPS15, P82914",8.59
same,PRISMA enrichment of interactor (log2),"MRPS23, Q9Y3D9",6.76
same,PRISMA enrichment of interactor (log2),"NAT10, Q9H0A0",4.74
same,PRISMA enrichment of interactor (log2),"NOC4L, Q9BVI4",4.42
same,PRISMA enrichment of interactor (log2),"NUP37, Q8NFH4",3.9
same,PRISMA enrichment of interactor (log2),"NUP85, Q9BW27",6.37
same,PRISMA enrichment of interactor (log2),"PFN1, P07737",5.05
same,PRISMA enrichment of interactor (log2),"PJA2, O43164",4.49
same,PRISMA enrichment of interactor (log2),"POLD2, P49005",7.13
same,PRISMA enrichment of interactor (log2),[2],4.73
same,PRISMA enrichment of interactor (log2),"PRRC2B, Q5JSZ5",6.58
same,PRISMA enrichment of interactor (log2),"RBM12B, Q8IXT5",4.13
same,PRISMA enrichment of interactor (log2),"RNF5, Q99942",4.22
same,PRISMA enrichment of interactor (log2),"SF3B4, Q15427",4.97
same,PRISMA enrichment of interactor (log2),"SPTLC1, O15269",4.51
same,PRISMA enrichment of interactor (log2),"TARDBP, Q13148",8.1
same,PRISMA enrichment of interactor (log2),"TRAPPC5, Q8IUR0",7.46
same,PRISMA enrichment of interactor (log2),"VRK1, Q99986",5.43
same,PRISMA enrichment of interactor (log2),"ZC3H14, Q6PJT7",8.12
same,PRISMA enrichment of interactor (log2),"ZNF281, Q9Y2X9",5.61

# Two entries drawn at random from those above:
binder,measurement,setting,value
IHSGGDLTCHCEQLL [LINC01128],PRISMA enrichment of interactor (log2),"C19orf53, Q9UNZ5",5.89
same,PRISMA enrichment of interactor (log2),"CD2AP, Q9Y5K6",4.79
